These results are taken from paper PMC3083391.

Amino acid sequences for entries named in this document (tags omitted).
UniProt Q04206: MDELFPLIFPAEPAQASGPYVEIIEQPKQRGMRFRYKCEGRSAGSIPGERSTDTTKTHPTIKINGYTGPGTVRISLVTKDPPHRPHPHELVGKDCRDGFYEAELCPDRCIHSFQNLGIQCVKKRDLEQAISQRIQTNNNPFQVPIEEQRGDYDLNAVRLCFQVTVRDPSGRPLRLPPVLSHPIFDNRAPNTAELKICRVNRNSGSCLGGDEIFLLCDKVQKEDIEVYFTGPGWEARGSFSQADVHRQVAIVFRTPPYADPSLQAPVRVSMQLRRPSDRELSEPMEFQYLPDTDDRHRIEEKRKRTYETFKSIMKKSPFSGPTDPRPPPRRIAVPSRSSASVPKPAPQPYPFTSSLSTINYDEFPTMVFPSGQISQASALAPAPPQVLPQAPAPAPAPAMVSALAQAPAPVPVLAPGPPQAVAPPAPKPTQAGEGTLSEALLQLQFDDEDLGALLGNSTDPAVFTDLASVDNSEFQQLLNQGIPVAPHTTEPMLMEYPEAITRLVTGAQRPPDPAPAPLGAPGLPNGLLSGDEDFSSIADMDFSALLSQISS
UniProt P25963: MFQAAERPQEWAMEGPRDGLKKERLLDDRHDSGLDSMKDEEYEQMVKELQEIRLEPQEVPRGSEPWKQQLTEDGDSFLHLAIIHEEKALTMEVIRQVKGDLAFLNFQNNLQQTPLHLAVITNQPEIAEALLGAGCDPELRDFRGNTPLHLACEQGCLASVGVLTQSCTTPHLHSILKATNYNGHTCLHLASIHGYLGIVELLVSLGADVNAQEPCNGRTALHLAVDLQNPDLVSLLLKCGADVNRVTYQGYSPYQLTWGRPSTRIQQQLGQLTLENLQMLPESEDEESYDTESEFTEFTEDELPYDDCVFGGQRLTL

No constants are given. Whether binding was seen depends on the method and setting. Binding seen in cells or lysates may run through a third protein. Some binding calls cover weakened binding; strength is not graded here. Tags and fused reporters may be left off the sequences shown.

Test [1] has as its target T1, Myc-AKIP 1A (human) (UniProt Q9NQ31).
T1 sequence: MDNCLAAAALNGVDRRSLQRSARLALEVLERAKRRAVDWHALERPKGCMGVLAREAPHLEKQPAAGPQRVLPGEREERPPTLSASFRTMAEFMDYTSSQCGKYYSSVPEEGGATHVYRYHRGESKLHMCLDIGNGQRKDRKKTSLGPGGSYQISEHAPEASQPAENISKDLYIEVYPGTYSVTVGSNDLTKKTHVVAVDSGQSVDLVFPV
The test is described as follows: co-IP; Myc-AKIP 1A immunoprecipitated from cytosolic fractions of HeLa cells, unstimulated or with 8-CPT-cAMP (50 µM); Western blot for PKAc, p65 and IκBα.

The target of test [2] is T1, Myc-AKIP 1A (human). The test is described as follows: co-IP; data not shown: cells stimulated with PMA; interaction of AKIP 1A with PKAc and p65.
The target in test [3] is T1, Myc-AKIP 1A (human). Briefly: co-IP; Myc-AKIP 1A immunoprecipitated from whole cell lysates of transfected HEK 293 cells, serum starved or stimulated with 8-CPT-cAMP (50 µM) or TNFα (1 ng/ml) for 60 min; Western blot for endogenous PKAc and p65.
For test [4], the target named is T1, Myc-AKIP 1A (human). The test is described as follows: co-IP; cytosolic fraction of resting HEK 293 cells transfected with Myc-AKIP 1A and Flag-p65 WT; Myc immunoprecipitate blotted for Flag, and Flag immunoprecipitate blotted for Myc.
A further test concerns the target Flag-p65 WT (UniProt Q04206). The description is as above.

Consider “endogenous IκBα (from UniProt P25963 1-317)”, for which the binding result with Myc-AKIP 1A (human) [1] is given as “binds”.
For the molecule “endogenous p65 subunit of NF-κB (from UniProt Q04206 1-551)”, the binding entry in the test with Myc-AKIP 1A (human) [2], in the test with Myc-AKIP 1A (human) [1] and in the test with Myc-AKIP 1A (human) [3] was “binds” in each case.
Take Flag-p65 WT (from UniProt Q04206 1-551): the binding entry in the test with Myc-AKIP 1A (human) [4] is recorded as “binds”.

B1: Myc-AKIP 1A (protein, UniProt Q9NQ31 1-210)
chain: MDNCLAAAALNGVDRRSLQRSARLALEVLERAKRRAVDWHALERPKGCMGVLAREAPHLEKQPAAGPQRVLPGEREERPPTLSASFRTMAEFMDYTSSQCGKYYSSVPEEGGATHVYRYHRGESKLHMCLDIGNGQRKDRKKTSLGPGGSYQISEHAPEASQPAENISKDLYIEVYPGTYSVTVGSNDLTKKTHVVAVDSGQSVDLVFPV
Consider B1, for which, in the test with Flag-p65 WT, the binding entry is recorded as “binds”.
